# Results are given in words; binding and its absence hold for the method and conditions named. Binding can be weak; no strength is given. Where a sequence is shown, tags or fusion partners need not be part of it.
# The chains behind the UniProt entries cited, without tags or fusion partners. Where a name states a change or a piece, a line headed by the entry shows the natural chain unless it says otherwise.
# UniProt P49956: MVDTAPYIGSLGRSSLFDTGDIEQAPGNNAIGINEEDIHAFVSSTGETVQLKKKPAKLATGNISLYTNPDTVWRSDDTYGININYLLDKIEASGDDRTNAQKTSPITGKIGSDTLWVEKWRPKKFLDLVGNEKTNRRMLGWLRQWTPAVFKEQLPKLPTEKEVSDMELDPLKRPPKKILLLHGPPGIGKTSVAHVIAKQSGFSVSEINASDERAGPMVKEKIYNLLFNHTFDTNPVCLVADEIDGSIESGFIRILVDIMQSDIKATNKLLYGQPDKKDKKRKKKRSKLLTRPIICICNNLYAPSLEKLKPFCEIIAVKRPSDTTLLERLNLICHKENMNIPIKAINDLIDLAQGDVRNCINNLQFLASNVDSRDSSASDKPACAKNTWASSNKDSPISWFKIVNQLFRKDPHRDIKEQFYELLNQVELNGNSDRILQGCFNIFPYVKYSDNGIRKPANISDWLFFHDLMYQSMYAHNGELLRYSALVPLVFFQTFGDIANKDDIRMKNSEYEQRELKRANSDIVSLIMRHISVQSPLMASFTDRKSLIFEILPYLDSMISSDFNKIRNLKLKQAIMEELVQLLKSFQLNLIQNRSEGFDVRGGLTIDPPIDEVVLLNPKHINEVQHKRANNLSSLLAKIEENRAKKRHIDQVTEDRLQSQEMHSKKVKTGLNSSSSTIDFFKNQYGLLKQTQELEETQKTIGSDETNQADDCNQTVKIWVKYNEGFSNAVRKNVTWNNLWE
# Biological target: T1, Dcc1 (two-hybrid fusion) (S. cerevisiae) (UniProt P25559)
# T1 sequence: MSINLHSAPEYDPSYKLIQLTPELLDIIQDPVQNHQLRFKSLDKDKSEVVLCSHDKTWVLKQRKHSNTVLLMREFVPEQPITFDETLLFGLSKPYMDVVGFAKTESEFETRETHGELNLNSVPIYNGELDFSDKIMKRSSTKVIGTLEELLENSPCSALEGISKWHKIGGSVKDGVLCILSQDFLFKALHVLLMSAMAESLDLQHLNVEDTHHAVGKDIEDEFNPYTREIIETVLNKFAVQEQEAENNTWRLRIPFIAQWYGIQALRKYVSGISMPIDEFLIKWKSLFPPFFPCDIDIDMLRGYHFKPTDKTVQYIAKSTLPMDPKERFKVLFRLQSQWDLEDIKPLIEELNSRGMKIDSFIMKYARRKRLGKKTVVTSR
# Assay: two-hybrid; Gal4-based, pGADT7 and pGBKT7 derivatives in the wild type strain PJ69–4A; growth on SC medium lacking tryptophan, leucine and histidine
row,binding,Substance
1,binds,Ctf18 A729G (two-hybrid fusion) (from UniProt P49956)
2,binds,Ctf18 A729T (two-hybrid fusion) (from UniProt P49956)
3,binds,Ctf18 E741A (two-hybrid fusion) (from UniProt P49956)
4,binds,Ctf18 W736A (two-hybrid fusion) (from UniProt P49956)
5,binds,Ctf18 W740A (two-hybrid fusion) (from UniProt P49956)
